Results are given in words; binding and its absence hold for the method and conditions named. Some binding calls cover weakened binding; strength is not graded here. Tags and fused reporters may be left off the sequences shown.
Key:
[1] = target: WT IL-38 (residues 3-152, initiator methionine, C-terminal His6 tag) (human) (UniProt Q8WWZ1); experiment: analytical SEC after 16 h at 37 C, 0.165 mg/ml
[2] = target: WT IL-38 (residues 3-152, initiator methionine, C-terminal His6 tag) (human) (UniProt Q8WWZ1); experiment: analytical SEC after extended incubation

binding [1]: binds
binding [2]: binds
B1: WT IL-38 (residues 3-152, initiator methionine, C-terminal His6 tag) (ligand, not shown: small tags and cut ends)
chain: MSLPMARYYIIKYADQKALYTRDGQLLVGDPVADNCCAEKICILPNRGLARTKVPIFLGIQGGSRCLACVETEEGPSLQLEDVNIEELYKGGEEATRFTFFQSSSGSAFRLEAAAWPGWFLCGPAEPQQPVQLTKESEPSARTKFYFEQSW
